# Results published in US20140336267A1, “UTILIZATION OF THE FUNCTION OF RARE SUGAR AS PROMOTER FOR THE MIGRATION OF GLUCOKINASE FROM NUCLEUS TO CYTOPLASM” (NATIONAL UNIVERSITY CORPORATION KAGAWA UNIVERSITY, priority 2006, published 2014).
# At least one structure is not confirmed: it was looked up by name or label, or the drawing left a doubt.
# System: glucokinase
# Assay: Intracellular transfer of hepatic glucokinase with hormones and various compounds (rat hepatocyte primary culture)
# Format: cell-based
# Details: 25 mM D-glucose MEM
# Procedure: Wistar rats (male, aged 5 to 8 weeks) were used. A primary culture of the rat hepatocyte was incubated for a certain period of time in a 25 mM D-glucose-containing MEM culture medium supplemented with hormones and various compounds. The hepatocytes were fixed with 4% para-formaldehyde, and stained by a fluorescence antibody method using an anti-glucokinase antibody. A fluorescent image obtained with a co-focus laser microscope was analyzed with the NIH Image to calculate the fluorescence intensity in the nucleus and the cytoplasm, which were defined as the glucokinase level in the nucleus and the cytoplasm.
# [1] = compound in the presence of insulin
SMILES,cytoplasmic glucokinase [1],cytoplasmic glucokinase (hormone or compound alone)
O=c1cc(N2CCOCC2)oc2c(-c3ccccc3)cccc12 [LY-294002],increase of cytoplasmic glucokinase with insulin was reduced,
C=C[C@@]1(C)CC(=O)[C@]2(O)[C@@]3(C)[C@@H](O)CCC(C)(C)[C@@H]3[C@H](O)[C@H](OC(C)=O)[C@@]2(C)O1 [Forskolin],,cytoplasmic glucokinase activity was reduced
CO[C@H]1C[C@@H]2CC[C@@H](C)[C@@](O)(O2)C(=O)C(=O)N2CCCC[C@H]2C(=O)O[C@H]([C@H](C)C[C@@H]2CC[C@@H](O)[C@H](OC)C2)CC(=O)[C@H](C)/C=C(\C)[C@@H](O)[C@@H](OC)C(=O)[C@H](C)C[C@H](C)/C=C/C=C/C=C/1C [rapamycin],such change could not be observed,
